# Primary screen of a compound library

The chains behind the UniProt entries cited, without tags or fusion partners.
UniProt E9BF75, entry or part of it: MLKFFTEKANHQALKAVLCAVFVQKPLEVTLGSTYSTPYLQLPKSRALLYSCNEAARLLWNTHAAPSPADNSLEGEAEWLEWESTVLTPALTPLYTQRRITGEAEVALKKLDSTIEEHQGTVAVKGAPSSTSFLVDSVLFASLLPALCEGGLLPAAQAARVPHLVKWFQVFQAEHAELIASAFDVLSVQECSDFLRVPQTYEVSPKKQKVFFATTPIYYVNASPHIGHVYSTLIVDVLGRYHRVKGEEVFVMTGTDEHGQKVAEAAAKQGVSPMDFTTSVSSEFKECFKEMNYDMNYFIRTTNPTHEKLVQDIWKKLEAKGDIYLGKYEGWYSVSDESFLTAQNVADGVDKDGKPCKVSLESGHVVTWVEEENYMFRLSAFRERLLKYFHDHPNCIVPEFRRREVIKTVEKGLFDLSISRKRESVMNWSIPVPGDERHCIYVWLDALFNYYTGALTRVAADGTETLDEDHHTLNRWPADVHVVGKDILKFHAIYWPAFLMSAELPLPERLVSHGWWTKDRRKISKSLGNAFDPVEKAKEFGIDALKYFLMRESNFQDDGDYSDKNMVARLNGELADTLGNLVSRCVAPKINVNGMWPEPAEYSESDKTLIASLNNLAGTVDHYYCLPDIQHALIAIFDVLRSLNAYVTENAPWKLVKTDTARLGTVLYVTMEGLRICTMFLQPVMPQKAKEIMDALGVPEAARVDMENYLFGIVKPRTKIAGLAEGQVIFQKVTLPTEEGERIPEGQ

Mtb heat-shock: 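Assay on Mycobacterium tuberculosis, filed only as a heat shock assay from Cornell; the read-out is not stated. The concentration is filed as 10 mM, unlikely as a test dose, so the dose is not known. The record gives no direction; compounds that gave an IC50 in retests scored well above the rest, so higher reads as stronger inhibition. Of about 69,000 compounds tested this way, about 930 (1.4%) reached 50% or more in at least one test.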
LdMetRS: 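Methionyl-tRNA synthetase (putative), Leishmania donovani (UniProt E9BF75). Primary screen of methionyl-tRNA synthetase; the read-out is not stated. The test concentration is not given. Values are per cent inhibition. Of about 68,000 compounds tested this way, about 24 (0.035%) reached 50% or more in at least one test.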
Mtb growth Cornell: 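Whole-cell assay for inhibitors of Mycobacterium tuberculosis growth, labelled Cornell in the record; the read-out is not stated. The concentration is filed as 10 mM, unlikely as a test dose, so the dose is not known. Higher means stronger inhibition (inferred from two other growth screens of the library). Of about 53,000 compounds tested this way, about 900 (1.7%) reached 50% or more in at least one test.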

Results are percentages, as filed.
The record does not define 0% and 100%; most values in the screen are far below 50% and negative numbers occur (in some assays of this library far below -100).
Compounds were drawn at random from those tested, without regard to their results.
A dash means the value is not listed here; it may have been measured.

CCc1cnc(N2C[C@H]3C[C@H](C(=O)N(C)C)[C@@H](C2)O3)nc1 read LdMetRS: 17.99%.
CC(C)CN1C(=O)CC[C@H]2CN(Cc3ncc[nH]3)CC[C@H]21 read LdMetRS: 0.8021%.
CCc1nccn1C1CCCN(C(=O)c2ccc3nncn3c2)C1 (stereo unspecified) read Mtb heat-shock: 15.27%; LdMetRS: 10.93%; Mtb growth Cornell: 12.45%.
CC(Oc1cc(Cl)cc(Cl)c1)C(=O)NCCS(N)(=O)=O (stereo unspecified) read Mtb heat-shock: 21.6%; LdMetRS: 11.71%; Mtb growth Cornell: 12.62%.
Cc1noc(C)c1CNC(=O)N1CCN(CC2CC2)CC1 read Mtb heat-shock: 16.21%; LdMetRS: 8.511%; Mtb growth Cornell: -21.59%.
CC(=O)c1ccc(S(=O)(=O)N2CCCC2CN2CCCC2)cc1 (stereo unspecified) read Mtb heat-shock: -10.76%; LdMetRS: 6.628%; Mtb growth Cornell: 5.15%.
Cc1ccccc1C(=O)N1C[C@@H](O)[C@H](N2CCOCC2)C1 read Mtb heat-shock: -5.225%; LdMetRS: 19.06%; Mtb growth Cornell: 51.24%.
COc1ccc(OC2CCN(c3ccncc3)CC2)cc1 read Mtb heat-shock: 3.834%; LdMetRS: 10.53%; Mtb growth Cornell: 27.59%.
Cc1cccc(S(=O)(=O)N2C[C@@H]3OCCN(C(C)C)[C@@H]3C2)c1 read LdMetRS: 10.8%.
CN(C)S(=O)(=O)N1CCCC(c2cccc(Cc3ccccc3)n2)C1 (stereo unspecified) read Mtb heat-shock: -8.232%; LdMetRS: -0.3497%.
Cc1ccc(S(N)(=O)=O)cc1C(=O)N1C[C@@H](CN(C)C)[C@@H](CO)C1 read Mtb heat-shock: 11.14%; LdMetRS: 9.415%; Mtb growth Cornell: 20.63%.
O=C(c1ccc(=O)[nH]c1)N1CCCC2(C=Cc3ccccc3O2)CC1 (stereo unspecified) read Mtb heat-shock: 16.15%; LdMetRS: 0%; Mtb growth Cornell: -6.032%.
CNC(=O)CN1CCCC12CCN(C(=O)c1ccccc1F)CC2 read LdMetRS: 10.64%.
O=C(COc1cccnc1)NCc1nncn1C1CCCCC1 read Mtb heat-shock: -12.8%; LdMetRS: 22.19%; Mtb growth Cornell: 1.995%.
CC(=O)N1CCCC2(C1)CN(c1nncs1)CCO2.O=C(O)C(F)(F)F (stereo unspecified) read Mtb heat-shock: 11.27%; Mtb growth Cornell: -5.437%.
COCCCNC(=O)Nc1cc(-c2ccccc2C)nn1CCO read Mtb heat-shock: -20.85%; LdMetRS: 16.43%; Mtb growth Cornell: -3.532%.
Cc1n[nH]c(C)c1-c1cnc(C2CCN(S(C)(=O)=O)CC2)cn1 read Mtb heat-shock: 6.62%; LdMetRS: 7.12%; Mtb growth Cornell: 19.51%.
CCC(CC)C(CNC(=O)Nc1ccc(C)cc1)N1CCOCC1 (stereo unspecified) read Mtb heat-shock: 27.61%; LdMetRS: 5.164%; Mtb growth Cornell: 11.6%.
CC(C)OCCN(C)CC(c1cccs1)N1CCOCC1 (stereo unspecified) read Mtb heat-shock: -21.81%; LdMetRS: 5.013%; Mtb growth Cornell: -75.69%.
CCn1cc(CNc2ccc(F)c(N3CCCS3(=O)=O)c2)cn1 read Mtb heat-shock: 5.535%; LdMetRS: 16.94%; Mtb growth Cornell: 42.09%.
CCOc1cccc2c1OCC(C(=O)NS(=O)(=O)c1cccs1)=C2 read Mtb heat-shock: -6.887%; LdMetRS: 11.97%; Mtb growth Cornell: 19.94%.
Cc1cnccc1N1CCN(C[C@]2(O)CCCN3CCCC[C@@H]32)CC1 read LdMetRS: 0.2577%.
CCc1nc(CN2CCCN(C(=O)c3cccn3C)CC2)cs1 read Mtb heat-shock: -2.83%; LdMetRS: 13.4%.
O=C(c1ccsc1)N1CC[C@@H](N2CCOCC2)[C@@H]1Cc1ccccc1 read Mtb heat-shock: -30.11%; LdMetRS: 6.536%; Mtb growth Cornell: 8.569%.

Once more, the final 2:

| Compound | Mtb heat-shock | LdMetRS | Mtb growth Cornell |
|---|---|---|---|
| `CCc1nc(CN2CCCN(C(=O)c3cccn3C)CC2)cs1` | -2.83% | 13.4% | - |
| `O=C(c1ccsc1)N1CC[C@@H](N2CCOCC2)[C@@H]1Cc1ccccc1` | -30.11% | 6.536% | 8.569% |

The values are deposited in ChEMBL (CHEMBL3988442, “University of Dundee, Small-Polar-MMV Screening Library” (2021)).